Among the data in article PMC11094951 are binding values, retold here.

Protein sequences, listed by entry. Tags and fused reporters are not part of them.
UniProt P40227: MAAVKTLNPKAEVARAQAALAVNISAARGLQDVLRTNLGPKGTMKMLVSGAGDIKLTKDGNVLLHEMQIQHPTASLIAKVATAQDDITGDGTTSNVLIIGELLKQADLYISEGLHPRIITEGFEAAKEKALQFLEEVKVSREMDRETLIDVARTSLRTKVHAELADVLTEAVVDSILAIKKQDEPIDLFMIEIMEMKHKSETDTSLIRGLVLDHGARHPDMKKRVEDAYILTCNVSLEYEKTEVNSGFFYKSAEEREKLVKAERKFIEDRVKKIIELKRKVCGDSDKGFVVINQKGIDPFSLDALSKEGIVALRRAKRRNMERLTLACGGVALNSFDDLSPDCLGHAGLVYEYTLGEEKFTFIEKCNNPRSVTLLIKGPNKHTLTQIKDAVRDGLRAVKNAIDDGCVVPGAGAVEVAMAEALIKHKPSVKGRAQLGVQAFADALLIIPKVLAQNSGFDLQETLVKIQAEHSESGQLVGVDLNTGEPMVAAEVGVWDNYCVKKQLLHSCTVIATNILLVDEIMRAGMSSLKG
UniProt P42224: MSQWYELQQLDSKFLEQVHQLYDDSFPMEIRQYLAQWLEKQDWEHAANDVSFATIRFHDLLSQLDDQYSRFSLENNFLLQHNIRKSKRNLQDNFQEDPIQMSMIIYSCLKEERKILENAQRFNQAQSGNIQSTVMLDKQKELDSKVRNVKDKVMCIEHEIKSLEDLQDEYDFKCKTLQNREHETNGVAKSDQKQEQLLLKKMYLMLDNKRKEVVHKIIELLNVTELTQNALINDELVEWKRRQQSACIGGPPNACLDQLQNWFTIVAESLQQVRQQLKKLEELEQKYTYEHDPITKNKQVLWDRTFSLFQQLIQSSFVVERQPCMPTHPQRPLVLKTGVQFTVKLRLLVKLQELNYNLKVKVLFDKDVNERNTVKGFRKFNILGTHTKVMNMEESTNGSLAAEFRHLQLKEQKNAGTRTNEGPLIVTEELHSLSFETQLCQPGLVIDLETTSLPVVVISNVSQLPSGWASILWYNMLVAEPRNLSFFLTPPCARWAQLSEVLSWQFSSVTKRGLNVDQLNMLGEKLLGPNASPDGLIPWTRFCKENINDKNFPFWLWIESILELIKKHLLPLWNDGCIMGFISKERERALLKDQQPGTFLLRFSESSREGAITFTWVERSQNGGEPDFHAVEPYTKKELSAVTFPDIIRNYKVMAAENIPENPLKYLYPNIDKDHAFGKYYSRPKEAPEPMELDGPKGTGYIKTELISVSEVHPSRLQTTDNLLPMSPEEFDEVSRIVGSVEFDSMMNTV

This experiment deals with Chaperonin Containing TCP1 Subunit 6 A (CCT6A) (human (endogenous in A549/PC9)) (UniProt P40227). The experiment in a line: affinity purification with mass spectrometry; proteins immunoprecipitated by anti-CCT6A or IgG, Coomassie-stained bands excised, digested, nanoLC-MS/MS (Orbitrap Fusion); cell line not stated.

These are yes or no findings as the source states them, for the method shown. Binding seen in cells or lysates may run through a third protein. Here binding means that the protein was enriched with, or labelled near, the bait; the list need not be complete.

As to “STAT1 (Signal Transducer and Activator of Transcription 1) (from UniProt P42224 1-750)”, the binding result is “binds”.
